# Reference: the supplement of paper PMC11732987, “Enantioselective OTUD7B fragment discovery through chemoproteomics screening and high-throughput optimisation” (Communications Chemistry, 2025)
# The chains behind the UniProt entries cited, without tags or fusion partners. Where a name states a change or a piece, a line headed by the entry shows the natural chain unless it says otherwise. Residues count along the entry.
# UniProt P57768, 54-74: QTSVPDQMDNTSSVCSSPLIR
# UniProt Q8TAQ2, whole entry, looked up: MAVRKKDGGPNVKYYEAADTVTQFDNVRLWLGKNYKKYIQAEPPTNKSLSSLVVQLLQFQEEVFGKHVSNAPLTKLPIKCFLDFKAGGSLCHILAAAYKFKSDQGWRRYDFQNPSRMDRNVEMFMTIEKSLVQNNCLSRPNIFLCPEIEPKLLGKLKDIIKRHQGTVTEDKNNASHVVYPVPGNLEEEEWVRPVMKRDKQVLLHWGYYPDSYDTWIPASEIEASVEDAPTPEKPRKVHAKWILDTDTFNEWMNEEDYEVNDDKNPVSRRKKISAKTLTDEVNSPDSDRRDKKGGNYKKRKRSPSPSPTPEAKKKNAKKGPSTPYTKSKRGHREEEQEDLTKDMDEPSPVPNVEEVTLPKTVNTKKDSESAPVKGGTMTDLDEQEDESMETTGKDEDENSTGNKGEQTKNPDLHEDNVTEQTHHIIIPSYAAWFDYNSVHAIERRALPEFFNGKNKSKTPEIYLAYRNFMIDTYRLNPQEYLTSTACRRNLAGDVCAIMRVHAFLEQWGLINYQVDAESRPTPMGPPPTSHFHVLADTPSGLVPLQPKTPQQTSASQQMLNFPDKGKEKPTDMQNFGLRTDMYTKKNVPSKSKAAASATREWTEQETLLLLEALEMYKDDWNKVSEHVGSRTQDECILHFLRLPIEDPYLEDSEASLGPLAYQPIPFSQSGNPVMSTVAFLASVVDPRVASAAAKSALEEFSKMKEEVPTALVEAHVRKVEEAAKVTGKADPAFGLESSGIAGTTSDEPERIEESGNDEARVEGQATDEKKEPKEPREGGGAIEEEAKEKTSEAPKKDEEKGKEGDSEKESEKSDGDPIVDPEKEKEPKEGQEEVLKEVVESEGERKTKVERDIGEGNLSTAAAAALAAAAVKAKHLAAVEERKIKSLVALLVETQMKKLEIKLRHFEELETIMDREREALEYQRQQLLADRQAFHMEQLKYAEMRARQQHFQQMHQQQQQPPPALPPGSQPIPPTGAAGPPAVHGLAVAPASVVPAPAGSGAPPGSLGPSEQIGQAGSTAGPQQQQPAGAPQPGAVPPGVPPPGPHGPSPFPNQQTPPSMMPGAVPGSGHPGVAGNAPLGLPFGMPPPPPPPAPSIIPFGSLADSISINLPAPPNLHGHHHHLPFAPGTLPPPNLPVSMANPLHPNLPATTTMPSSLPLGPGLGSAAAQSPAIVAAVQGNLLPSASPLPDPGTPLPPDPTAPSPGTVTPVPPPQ
# UniProt A6NHR9: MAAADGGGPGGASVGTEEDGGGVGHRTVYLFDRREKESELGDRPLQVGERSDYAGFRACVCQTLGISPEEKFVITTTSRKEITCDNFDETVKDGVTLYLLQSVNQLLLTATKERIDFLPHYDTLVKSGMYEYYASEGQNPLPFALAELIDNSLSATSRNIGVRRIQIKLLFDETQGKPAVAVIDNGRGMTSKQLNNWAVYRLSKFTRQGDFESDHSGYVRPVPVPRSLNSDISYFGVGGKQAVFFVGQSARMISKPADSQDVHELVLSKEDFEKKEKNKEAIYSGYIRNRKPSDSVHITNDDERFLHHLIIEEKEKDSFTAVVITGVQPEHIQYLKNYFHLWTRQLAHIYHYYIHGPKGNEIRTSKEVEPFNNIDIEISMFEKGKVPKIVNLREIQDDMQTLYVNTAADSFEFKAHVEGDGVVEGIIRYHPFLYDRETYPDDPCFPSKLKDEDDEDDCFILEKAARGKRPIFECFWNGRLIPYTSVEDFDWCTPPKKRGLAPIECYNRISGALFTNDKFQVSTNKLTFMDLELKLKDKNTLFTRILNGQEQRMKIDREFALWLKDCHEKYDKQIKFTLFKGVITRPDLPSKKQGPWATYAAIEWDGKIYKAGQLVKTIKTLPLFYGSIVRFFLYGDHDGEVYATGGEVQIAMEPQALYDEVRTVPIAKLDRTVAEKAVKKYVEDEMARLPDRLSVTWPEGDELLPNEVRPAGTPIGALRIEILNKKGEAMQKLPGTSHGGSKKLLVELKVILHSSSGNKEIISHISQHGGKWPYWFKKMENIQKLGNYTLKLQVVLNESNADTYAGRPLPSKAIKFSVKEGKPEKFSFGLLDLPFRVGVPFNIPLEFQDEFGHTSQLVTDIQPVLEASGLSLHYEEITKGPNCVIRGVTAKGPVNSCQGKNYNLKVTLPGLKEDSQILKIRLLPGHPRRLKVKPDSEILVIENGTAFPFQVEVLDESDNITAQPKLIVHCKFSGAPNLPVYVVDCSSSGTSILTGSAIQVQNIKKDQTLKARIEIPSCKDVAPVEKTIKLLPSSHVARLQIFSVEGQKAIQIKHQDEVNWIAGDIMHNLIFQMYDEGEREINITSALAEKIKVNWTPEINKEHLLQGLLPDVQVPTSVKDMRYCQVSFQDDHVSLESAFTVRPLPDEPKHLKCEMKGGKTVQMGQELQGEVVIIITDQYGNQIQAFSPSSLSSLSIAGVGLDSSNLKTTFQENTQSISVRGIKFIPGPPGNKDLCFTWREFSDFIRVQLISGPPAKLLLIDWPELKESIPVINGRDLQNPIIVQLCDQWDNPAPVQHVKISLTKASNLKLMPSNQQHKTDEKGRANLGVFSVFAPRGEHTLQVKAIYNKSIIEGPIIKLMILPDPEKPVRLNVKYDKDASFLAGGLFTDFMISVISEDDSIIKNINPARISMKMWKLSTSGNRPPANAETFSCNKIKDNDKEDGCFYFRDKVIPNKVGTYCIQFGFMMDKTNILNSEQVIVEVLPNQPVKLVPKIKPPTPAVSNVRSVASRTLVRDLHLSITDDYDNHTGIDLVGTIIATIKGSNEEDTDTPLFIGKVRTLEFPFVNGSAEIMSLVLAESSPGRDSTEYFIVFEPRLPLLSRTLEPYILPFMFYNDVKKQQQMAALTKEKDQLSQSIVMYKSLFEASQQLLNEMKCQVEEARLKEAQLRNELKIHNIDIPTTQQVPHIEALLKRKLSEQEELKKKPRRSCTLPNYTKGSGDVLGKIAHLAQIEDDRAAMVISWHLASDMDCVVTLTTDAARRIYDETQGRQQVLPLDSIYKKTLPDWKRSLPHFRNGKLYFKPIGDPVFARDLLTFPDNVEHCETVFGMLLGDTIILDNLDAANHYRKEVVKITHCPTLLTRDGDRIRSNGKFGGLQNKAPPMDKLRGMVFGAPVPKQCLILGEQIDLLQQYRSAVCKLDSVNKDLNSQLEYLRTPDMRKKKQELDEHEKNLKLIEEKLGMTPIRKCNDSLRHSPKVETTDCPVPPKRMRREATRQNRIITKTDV
# UniProt Q96R06, 1088-1112: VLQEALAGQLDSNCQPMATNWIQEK
# UniProt P63208, whole entry, looked up: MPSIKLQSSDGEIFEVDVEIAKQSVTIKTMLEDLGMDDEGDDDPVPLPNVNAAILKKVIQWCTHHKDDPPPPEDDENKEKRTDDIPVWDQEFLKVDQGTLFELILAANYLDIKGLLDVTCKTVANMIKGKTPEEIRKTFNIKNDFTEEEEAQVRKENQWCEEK
# UniProt P05141: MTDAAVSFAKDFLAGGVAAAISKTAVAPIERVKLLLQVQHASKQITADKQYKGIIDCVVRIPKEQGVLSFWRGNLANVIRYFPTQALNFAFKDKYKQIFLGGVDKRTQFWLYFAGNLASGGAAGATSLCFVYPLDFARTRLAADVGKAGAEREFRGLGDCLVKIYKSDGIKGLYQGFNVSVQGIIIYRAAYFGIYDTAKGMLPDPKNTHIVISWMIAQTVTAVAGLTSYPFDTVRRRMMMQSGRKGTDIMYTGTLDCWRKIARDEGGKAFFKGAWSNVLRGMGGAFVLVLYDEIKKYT
# UniProt P30825: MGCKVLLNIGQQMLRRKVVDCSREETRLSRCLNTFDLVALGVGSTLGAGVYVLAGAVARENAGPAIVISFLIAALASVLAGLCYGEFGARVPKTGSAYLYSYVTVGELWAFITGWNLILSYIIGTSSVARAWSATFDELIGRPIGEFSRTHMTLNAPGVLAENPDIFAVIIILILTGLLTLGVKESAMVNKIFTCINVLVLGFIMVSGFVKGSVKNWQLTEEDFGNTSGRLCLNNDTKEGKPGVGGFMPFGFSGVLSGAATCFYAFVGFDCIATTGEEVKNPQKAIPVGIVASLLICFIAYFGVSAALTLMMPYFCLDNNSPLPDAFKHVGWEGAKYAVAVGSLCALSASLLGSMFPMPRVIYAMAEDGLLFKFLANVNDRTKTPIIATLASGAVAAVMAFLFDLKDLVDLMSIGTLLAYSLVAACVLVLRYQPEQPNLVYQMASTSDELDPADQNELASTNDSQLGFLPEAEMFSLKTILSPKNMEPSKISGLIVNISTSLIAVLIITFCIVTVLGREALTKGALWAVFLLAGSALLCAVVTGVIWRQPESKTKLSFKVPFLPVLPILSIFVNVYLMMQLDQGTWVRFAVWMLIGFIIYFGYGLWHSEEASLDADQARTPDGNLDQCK
# UniProt Q96CW6: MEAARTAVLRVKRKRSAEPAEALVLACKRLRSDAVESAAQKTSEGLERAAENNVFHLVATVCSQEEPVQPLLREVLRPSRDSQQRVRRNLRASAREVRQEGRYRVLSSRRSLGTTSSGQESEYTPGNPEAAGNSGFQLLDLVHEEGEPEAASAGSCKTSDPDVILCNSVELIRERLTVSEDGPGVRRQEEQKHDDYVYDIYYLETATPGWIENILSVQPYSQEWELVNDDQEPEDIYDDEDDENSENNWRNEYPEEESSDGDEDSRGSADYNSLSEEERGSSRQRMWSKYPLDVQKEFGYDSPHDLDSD
# UniProt Q06945: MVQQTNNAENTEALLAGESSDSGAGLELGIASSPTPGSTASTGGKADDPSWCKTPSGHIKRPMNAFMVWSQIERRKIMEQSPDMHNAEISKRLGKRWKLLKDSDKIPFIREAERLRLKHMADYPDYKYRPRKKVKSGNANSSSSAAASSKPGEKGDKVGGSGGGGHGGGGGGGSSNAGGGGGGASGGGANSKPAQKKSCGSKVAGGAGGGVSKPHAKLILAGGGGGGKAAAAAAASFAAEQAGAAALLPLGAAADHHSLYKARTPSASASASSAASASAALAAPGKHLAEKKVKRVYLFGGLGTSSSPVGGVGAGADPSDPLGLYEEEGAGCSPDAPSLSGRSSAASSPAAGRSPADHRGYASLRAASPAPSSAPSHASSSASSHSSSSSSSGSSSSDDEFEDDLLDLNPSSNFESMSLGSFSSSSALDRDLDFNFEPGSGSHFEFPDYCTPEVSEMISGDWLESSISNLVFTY
# UniProt P53794: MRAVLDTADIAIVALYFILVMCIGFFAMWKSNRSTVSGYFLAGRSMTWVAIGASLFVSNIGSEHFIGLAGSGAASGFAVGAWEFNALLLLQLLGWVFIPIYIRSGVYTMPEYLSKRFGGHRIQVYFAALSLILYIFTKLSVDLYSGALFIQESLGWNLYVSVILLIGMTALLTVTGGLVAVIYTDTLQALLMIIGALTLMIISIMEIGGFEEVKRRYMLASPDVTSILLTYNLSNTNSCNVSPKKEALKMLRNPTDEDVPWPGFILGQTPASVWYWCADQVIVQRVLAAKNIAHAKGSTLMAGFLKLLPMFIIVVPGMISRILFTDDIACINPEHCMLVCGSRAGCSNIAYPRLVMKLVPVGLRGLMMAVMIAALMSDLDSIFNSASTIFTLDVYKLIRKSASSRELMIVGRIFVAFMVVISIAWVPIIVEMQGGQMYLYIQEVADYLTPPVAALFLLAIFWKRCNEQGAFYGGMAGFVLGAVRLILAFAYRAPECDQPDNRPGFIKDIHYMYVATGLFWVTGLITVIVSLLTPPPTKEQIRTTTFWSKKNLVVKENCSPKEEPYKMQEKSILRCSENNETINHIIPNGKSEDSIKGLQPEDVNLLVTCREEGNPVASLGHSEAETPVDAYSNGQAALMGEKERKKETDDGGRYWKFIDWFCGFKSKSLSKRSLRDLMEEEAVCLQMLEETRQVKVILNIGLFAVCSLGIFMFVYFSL
# UniProt P43007: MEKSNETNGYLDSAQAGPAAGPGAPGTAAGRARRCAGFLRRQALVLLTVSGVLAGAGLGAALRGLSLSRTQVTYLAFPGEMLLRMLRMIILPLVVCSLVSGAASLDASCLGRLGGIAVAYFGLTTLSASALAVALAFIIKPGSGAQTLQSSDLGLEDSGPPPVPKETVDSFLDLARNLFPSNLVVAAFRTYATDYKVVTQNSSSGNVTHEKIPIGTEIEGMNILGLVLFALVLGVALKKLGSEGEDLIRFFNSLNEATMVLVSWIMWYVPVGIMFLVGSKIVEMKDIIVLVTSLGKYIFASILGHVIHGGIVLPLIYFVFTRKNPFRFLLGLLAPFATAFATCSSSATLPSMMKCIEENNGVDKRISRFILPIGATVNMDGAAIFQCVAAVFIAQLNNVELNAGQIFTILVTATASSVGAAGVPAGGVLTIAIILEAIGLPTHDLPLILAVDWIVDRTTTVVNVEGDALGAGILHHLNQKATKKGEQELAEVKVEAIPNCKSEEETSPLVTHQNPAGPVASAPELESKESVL
# The other results are listed elsewhere or left out. The data scatter; read single values as rough.
# Compound: ClCC(=O)N[C@@H]1CCCc2ccccc12
# Experiment: log2 mean competition ratio of IA-DTB cysteine labelling (DMSO/compound) (log2 ratio); higher = stronger cysteine engagement by compound
# Conditions: 50 µM; treatment time: 4 h; cell line lysate: HEK293T
# Protocol: (§1)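 IA-DTB competitive cysteine chemoproteomics in HEK293T RIPA lysate. Lysates were treated with compound 29 or 30 at 50 or 200 µM for 4 h, then IA-DTB (500 µM, 1 h), trypsin-digested, NeutrAvidin-enriched and analysed by diaPASEF. Competition ratio = intensity DMSO / intensity compound (n=4 treated, n=64 DMSO); binding: mean log2 CR ≥ 1 and p ≤ 0.05 plus QC filters. Target is the cysteine site.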
row,Target,log2 mean competition ratio
1,SMC1B C102 (UniProt Q8NDV3),-0.282
2,SLC30A1 C469 (UniProt Q9Y6M5),-0.176
3,SLC6A15 C91,0.0582
4,SMARCA5 C165 (UniProt O60264),-0.0325
5,SLC25A40 C142 (UniProt Q8TBP6),-0.211
6,SNX16 C68 (UniProt P57768),-0.626
7,SOCS6 C342 (UniProt O14544),-0.324
8,SMC2 C326 (UniProt O95347),-0.0713
9,SNX7 C325,-0.0662
10,SLX4IP C299 (UniProt Q5VYV7),0.0282
11,SMAD1 C121 (UniProt Q15797),0.0831
12,SKA1 C10 (UniProt Q96BD8),-0.4
13,SKIV2L C247 (UniProt Q15477),-0.0128
14,SKA1 C142 (UniProt Q96BD8),0.228
15,SLC25A13 C565 (UniProt Q9UJS0),0.133
16,SMPD4 C68 (UniProt Q9NXE4),-0.0446
17,SMARCC2 C495 (UniProt Q8TAQ2),-0.125
18,SMARCA1 C377 (UniProt P28370),0.0391
19,SMCHD1 C1710 (UniProt A6NHR9),-0.0904

row,Target,log2 mean competition ratio
1,SLC1A3 C375 (UniProt P43003),0.0509
2,SPAG5 C1101 (UniProt Q96R06),0.108
3,SKP1 C120 (UniProt P63208),-0.0864
4,SLC25A20 C155 (UniProt O43772),-0.0412
5,SKA1 C29 (UniProt Q96BD8),0.0367
6,SPAG1 C552 (UniProt Q07617),-0.00704
7,SOS1 C372 (UniProt Q07889),-0.156
8,SLC25A5 C57 (UniProt P05141),-0.0216
9,SPAG1 C633 (UniProt Q07617),-0.363
10,SLC7A1 C21 (UniProt P30825),0.0286
11,SNRPD2 C46,-0.0212
12,SLC7A6OS C166 (UniProt Q96CW6),-0.152
13,SLC35B2 C80 (UniProt Q8TB61),-0.0568
14,SOX4 C52 (UniProt Q06945),-0.219
15,SLC4A7 C993 (UniProt Q9Y6M7),-0.111
16,SLC5A3 C575 (UniProt P53794),-0.0838
17,SLC1A4 C355 (UniProt P43007),-0.054
18,SMARCA5 C259 (UniProt O60264),-0.146

# Same assay, conditions: 200 µM; treatment time: 4 h; cell line lysate: HEK293T
row,Target,log2 mean competition ratio
1,SMC1B C102 (UniProt Q8NDV3),0.249
2,SLC30A1 C469 (UniProt Q9Y6M5),0.297
3,SLC6A15 C91,0.323
4,SMARCA5 C165 (UniProt O60264),0.103
5,SLC25A40 C142 (UniProt Q8TBP6),-0.0473
6,SNX16 C68 (UniProt P57768),0.192
7,SOCS6 C342 (UniProt O14544),0.0767
8,SMC2 C326 (UniProt O95347),0.0487
9,SNX7 C325,0.125
10,SLX4IP C299 (UniProt Q5VYV7),0.0175
11,SMAD1 C121 (UniProt Q15797),0.1
12,SKA1 C10 (UniProt Q96BD8),0.272
13,SKIV2L C247 (UniProt Q15477),-0.248
14,SKA1 C142 (UniProt Q96BD8),0.0474
15,SLC25A13 C565 (UniProt Q9UJS0),0.114
16,SMPD4 C68 (UniProt Q9NXE4),0.0505
17,SMARCC2 C495 (UniProt Q8TAQ2),-0.216
18,SMARCA1 C377 (UniProt P28370),0.0668
19,SMCHD1 C1710 (UniProt A6NHR9),-0.162

row,Target,log2 mean competition ratio
1,SLC1A3 C375 (UniProt P43003),0.204
2,SPAG5 C1101 (UniProt Q96R06),0.28
3,SKP1 C120 (UniProt P63208),-0.144
4,SLC25A20 C155 (UniProt O43772),0.161
5,SKA1 C29 (UniProt Q96BD8),-0.145
6,SPAG1 C552 (UniProt Q07617),0.0482
7,SOS1 C372 (UniProt Q07889),0.309
8,SLC25A5 C57 (UniProt P05141),-0.0735
9,SPAG1 C633 (UniProt Q07617),-0.0259
10,SLC7A1 C21 (UniProt P30825),0.0463
11,SNRPD2 C46,-0.192
12,SLC7A6OS C166 (UniProt Q96CW6),0.152
13,SLC35B2 C80 (UniProt Q8TB61),0.0655
14,SOX4 C52 (UniProt Q06945),0.261
15,SLC4A7 C993 (UniProt Q9Y6M7),-0.31
16,SLC5A3 C575 (UniProt P53794),0.151
17,SLC1A4 C355 (UniProt P43007),0.429
18,SMARCA5 C259 (UniProt O60264),0.218

# Compound: ClCC(=O)N[C@H]1CCCc2ccccc12
# Experiment: as above
# Conditions: 50 µM; treatment time: 4 h; cell line lysate: HEK293T
# Protocol: as §1
row,Target,log2 mean competition ratio
1,SMC1B C102 (UniProt Q8NDV3),0.268
2,SLC30A1 C469 (UniProt Q9Y6M5),-0.158
3,SLC6A15 C91,-0.3
4,SMARCA5 C165 (UniProt O60264),0.0472
5,SLC25A40 C142 (UniProt Q8TBP6),0.0038
6,SNX16 C68 (UniProt P57768),-0.219
7,SOCS6 C342 (UniProt O14544),-0.0573
8,SMC2 C326 (UniProt O95347),0.00251
9,SNX7 C325,-0.241
10,SLX4IP C299 (UniProt Q5VYV7),-0.102
11,SMAD1 C121 (UniProt Q15797),0.27
12,SKA1 C10 (UniProt Q96BD8),-0.763
13,SKIV2L C247 (UniProt Q15477),0.354
14,SKA1 C142 (UniProt Q96BD8),0.199
15,SLC25A13 C565 (UniProt Q9UJS0),0.0315
16,SMPD4 C68 (UniProt Q9NXE4),-0.432
17,SMARCC2 C495 (UniProt Q8TAQ2),-0.383
18,SMARCA1 C377 (UniProt P28370),0.0758
19,SMCHD1 C1710 (UniProt A6NHR9),-0.0726

row,Target,log2 mean competition ratio
1,SLC1A3 C375 (UniProt P43003),0.0864
2,SPAG5 C1101 (UniProt Q96R06),0.296
3,SKP1 C120 (UniProt P63208),0.313
4,SLC25A20 C155 (UniProt O43772),0.239
5,SKA1 C29 (UniProt Q96BD8),0.537
6,SPAG1 C552 (UniProt Q07617),-0.0227
7,SOS1 C372 (UniProt Q07889),-0.172
8,SLC25A5 C57 (UniProt P05141),0.0501
9,SPAG1 C633 (UniProt Q07617),-0.292
10,SLC7A1 C21 (UniProt P30825),-0.036
11,SNRPD2 C46,0.324
12,SLC7A6OS C166 (UniProt Q96CW6),-0.104
13,SLC35B2 C80 (UniProt Q8TB61),0.45
14,SOX4 C52 (UniProt Q06945),-0.247
15,SLC4A7 C993 (UniProt Q9Y6M7),-0.519
16,SLC5A3 C575 (UniProt P53794),-0.606
17,SLC1A4 C355 (UniProt P43007),-0.255
18,SMARCA5 C259 (UniProt O60264),-0.479
